Reference: US11653649B2, “Antimicrobial composition including a dihydroxamic acid and methods of inhibiting microbial growth utilizing the same” (Kimberly-Clark Worldwide, Inc., priority 2017, dated 2023)
Some entries share one result that the patent states for a list of compounds.

Test: Determination of Aqueous Solubility (pH-4.5) by Miniaturized Shake Flask Method
Assay type: physicochemical
Settings: in water
Experimental: Determination of Aqueous Solubility (pH-4.5) by Miniaturized Shake Flask Method
Test Media: Ultrapure water (pH-4.5) (18MΩDl water)
Test Concentration: 10 mg/ml
Incubation Details: 22° C. +/−3° C.
Method of Analysis: Photometric analysis using Microplate reader
Data Output: Aqueous Solubility
Required volume of ultrapure water (˜75 mL) was taken and pH was adjusted to 4.5 using citrate buffer (pH-4.5). This water was used as a test media for determining the solubility of test/reference items.
Solubility Testing by Shake Flask Method
The solubility of test items were determined at a highest test concentration of 1% w/v (10 mg/mL).
40 mg of test items were weighed into tubes.
4 mL of Ultrapure water was added to all tubes to get a concentration of 10 mg/mL (1% w/v).
The initial pH of the solubility samples were recorded. […] Then, the solution were observed visually for any precipitation.
The visually soluble samples were centrifuged at 10000 rpm for 10 minutes at room temperature (22° C.±3° C.).
An aliquot of the supernatant were diluted with equal volume of methanol. The samples were further diluted in methanol: water (50:50) to obtain dilution of 1:2, 1:4, 1:16, 1:32 etc.
The samples were then transferred to UV plate and scanned at Amax of that particular test/reference item.

Row | SMILES | water solubility
1 | O=C(CCC(=O)NO)NO [Compound No. 8, N, N′-dihydroxysuccinamide] | > 1.00%
2 | O=C(CC(O)C(=O)NO)NO (centres unmarked) [Compound No. 7, N, N′, 2-trihydroxy butane diamide] | > 1.00%
